Taken from: PubChem BioAssay AID1259424 (University of Nebraska Medical Center, 2018)

Test: 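Rank knockdowns across the genome by resemblance to the KSR1 depletion profile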 (primary screen)
Cells: human HCT116 colon cancer cells
Knock-down reagent: siRNA pool against human genes, 50 nM
Read-out: 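Log2 levels of six mRNAs (branched-DNA multiplex), adjusted by two reference genes and the non-targeting median, then scored against the average KSR1 knockdown pattern as Pearson r and euclidean distance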
Scale: mean correlation with KSR1 profile: higher = expression change more like KSR1 knockdown
Shown is one part, drawn at random, of about 14,000 reagents. 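Higher correlation or smaller distance means closer resemblance to KSR1 loss; control wells, including KSR1 knockdowns, recur on many plates.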 Further read-outs or replicates are left out here. Not stated in the record: the time to read-out.

With MARCKSL1, what was measured?
mean correlation with KSR1 profile: -0.525

How did the screen score CFD?
mean correlation with KSR1 profile: 0.309

With XCL2, how do the results read?
mean correlation with KSR1 profile: 0.765

What is on record for NME2?
mean correlation with KSR1 profile: 0.404

For DHRS12, what was measured?
mean correlation with KSR1 profile: 0.678

How did the screen score HLA-E?
mean correlation with KSR1 profile: -0.58

With F7, what does the deposit list?
mean correlation with KSR1 profile: -0.433

What did the screen give for IER3IP1?
mean correlation with KSR1 profile: -0.0913

With GALNT4, what was measured?
mean correlation with KSR1 profile: 0.119

What did the screen give for INTS10?
mean correlation with KSR1 profile: 0.671

What is on record for RHOQ?
mean correlation with KSR1 profile: 0.146

For FARS2, what does the deposit list?
mean correlation with KSR1 profile: -0.507

For EIF3A, what does the deposit list?
mean correlation with KSR1 profile: 0.0606

How did the screen score TAS2R38?
mean correlation with KSR1 profile: -0.316

What did the screen give for UBL5?
mean correlation with KSR1 profile: -0.445

Which result is listed for PLA2G5?
mean correlation with KSR1 profile: 0.684

With F11, how do the results read?
mean correlation with KSR1 profile: -0.267

With ESRRB, what does the deposit list?
mean correlation with KSR1 profile: 0.568

For PGPEP1, how do the results read?
mean correlation with KSR1 profile: -0.128

Already shown: entries from further up.
NME2: mean correlation with KSR1 profile = 0.404
DHRS12: mean correlation with KSR1 profile = 0.678
